{
  "source": "paper PMC11223151",
  "about": "(ACS Omega, 2024)",
  "origin": "cited, not measured here",
  "conditions": "acidic or neutral pH, i.e., water; cited from earlier work",
  "data": [
    {"molecule": "COc1cc(/C=C/C(=O)CC(=O)/C=C/c2ccc(O)c(OC)c2)ccc1O", "note": "[curcumin]", "values": [
      {"measurement": "solubility", "result": "insoluble"}
    ]}
  ]
}
